Experimental data as given in patent US20030105024A1 (STATE OF OREGON, published 2003).
Results are given in words; binding and its absence hold for the method and conditions named. Some binding calls cover weakened binding; strength is not graded here.

Protein sequences, listed by entry. Tags and fused reporters are not part of them. Lines headed by an entry give the natural chain unless they say otherwise; changes in a name come on top.
UniProt P01189: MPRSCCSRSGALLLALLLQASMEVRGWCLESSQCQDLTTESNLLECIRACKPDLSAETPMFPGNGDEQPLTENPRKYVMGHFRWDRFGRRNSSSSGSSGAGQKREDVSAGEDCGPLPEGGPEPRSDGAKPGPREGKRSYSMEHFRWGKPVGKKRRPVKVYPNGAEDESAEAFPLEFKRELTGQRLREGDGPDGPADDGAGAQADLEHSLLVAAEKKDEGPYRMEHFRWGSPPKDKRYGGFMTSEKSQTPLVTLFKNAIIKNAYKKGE

Target: T1, rat melanocortin-3 receptor (rat, UniProt P32244 1-323)
T1 chain: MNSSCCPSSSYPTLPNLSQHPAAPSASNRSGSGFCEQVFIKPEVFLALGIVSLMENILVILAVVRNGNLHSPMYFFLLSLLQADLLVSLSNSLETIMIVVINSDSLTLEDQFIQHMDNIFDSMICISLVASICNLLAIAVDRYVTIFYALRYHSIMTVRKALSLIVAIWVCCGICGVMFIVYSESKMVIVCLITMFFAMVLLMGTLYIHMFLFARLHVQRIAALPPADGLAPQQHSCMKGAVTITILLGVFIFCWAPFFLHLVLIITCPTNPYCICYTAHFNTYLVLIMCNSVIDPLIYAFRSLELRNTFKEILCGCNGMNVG
Assay: relative order of potency, competition with 125I-NDP-MSH on cells expressing rat MC-3 receptor

B1: γ-melanocyte stimulating hormone (peptide, UniProt P01189 77-88, looked up)
peptide: YVMGHFRWDRFG
notes: domain: γMSH; Printed without an index; also called γMSH; γ-MSH
For B1, the binding was “binds”.
